Measurements: patent US11912787B2, “Peptide for skin aging prevention and wrinkle reduction, and composition comprising same” (DERMAFIRM, INC., priority 2019, dated 2024)
Not every detail of the peptide structures is certain; ends, links or a residue may be inferred. Some entries repeat one wording, which the source may state once for all of them. Residues, ends and D or L forms follow the SMILES beside them. *: point of attachment. Palmitoyl = CCCCCCCCCCCCCCCC(=O)*

Assays:
Assay type in all cases: cell-based
[1] = tested on: MMP-9; assay: Western blotting of MMP-9 protein expression in UVB-irradiated Hs68 fibroblasts; conditions: Western blotting (FIG. 5)
[2] = tested on: MMP-2; assay: Gelatin zymography of UV-induced MMP-2 activity in UVB-irradiated Hs68 fibroblasts; conditions: for concentration showing MMP-2 inhibitory effect, as fraction of the concentration of GHK-acetate: UVB-irradiated Hs68 fibroblasts (FIG. 3); for effect on UVB-induced MMP-2 activity: supernatant of UVB-irradiated Hs68 fibroblasts, various concentrations (FIG. 3)
[3] = tested on: collagen synthesis in Hs68 fibroblasts; assay: Soluble collagen synthesis in UVB-irradiated Hs68 fibroblasts; conditions: UVB-irradiated Hs68 fibroblasts (FIG. 4)
[4] = tested on: Hs68 fibroblasts; assay: Intracellular uptake imaged by confocal microscope; conditions: 50 μM; for intracellular uptake (entry into cytoplasm): Hs68 fibroblasts (FIG. 2)

CCCCCCCCCCCCCCCC(=O)NCC(=O)N[C@@H](Cc1c[nH]cn1)C(=O)N[C@@H](CCCCN)C(=O)N[C@@H](CCCNC(=N)N)C(=O)N[C@@H](CCCNC(=N)N)C(=O)N[C@@H](CCCNC(=N)N)C(=O)N[C@@H](CCCNC(=N)N)C(=O)O [Pal-GHK-R4, Pal-GlyHisLys-ArgArgArgArg-OH] (Palmitoyl-GHKRRRR-OH)
effect on MMP-9 protein expression [1]: could inhibit the expression of MMP-9 at lower concentrations than GHK | concentration showing MMP-2 inhibitory effect, as fraction of the concentration of GHK-acetate [2]: about 1/100 | effect on UVB-induced MMP-2 activity [2]: inhibited the UVB-induced MMP-2 activity | concentration increasing collagen synthesis, as fraction of the concentration of GHK-acetate [3]: 1/100

NCCCC[C@H](NC(=O)[C@H](Cc1c[nH]cn1)NC(=O)CN)C(=O)O [GHK-acetate, glycine-histidyl-lysine tripeptide, reference compound] (H-Gly-His-Lys-OH)
effect on MMP-9 protein expression [1]: generally decreased the expression of MMP-9 in a concentration-dependent manner | effect on UVB-induced MMP-2 activity [2]: inhibited the UVB-induced MMP-2 activity | intracellular uptake (entry into cytoplasm) ([4]; 1 hour): almost no GHK-acetate entered the cytoplasm | intracellular uptake (entry into cytoplasm) ([4]; 3 hours): a portion of GHK-acetate entered the cytoplasm

H-GHKRRRR-OH [GHK-R4, H-GlyHisLys-ArgArgArgArg-OH]
effect on MMP-9 protein expression [1]: could inhibit the expression of MMP-9 at lower concentrations than GHK | concentration showing MMP-2 inhibitory effect, as fraction of the concentration of GHK-acetate [2]: about 1/10 | effect on UVB-induced MMP-2 activity [2]: inhibited the UVB-induced MMP-2 activity | intracellular uptake (entry into cytoplasm) ([4]; 1 hour): all entered the cytoplasm from 1 hour | rate of cell entry compared with GHK-acetate ([4]; Hs68 fibroblasts): entered the cells faster than GHK-acetate | concentration increasing collagen synthesis, as fraction of the concentration of GHK-acetate [3]: ⅕
